PubChem BioAssay AID504793, Drosophila RNAi Screening Center – 2011

- Aim: 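Knock-downs allowing continued mitosis even though DNA is damaged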 (primary screen)
- System: Drosophila S2R+ cells
- Knock-down reagent: long dsRNA against Drosophila genes, about 0.25 µg dsRNA per well
- Duration: 4 days of dsRNA, then 4 hours of drug before read-out
- Treatment: doxorubicin 0.5 µM for 4 hours to cause double-strand breaks, in cells also given a low, harmless dose of dsRNA against nbs to sensitise the assay
- Measurement: 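Mitotic index as the number of phospho-histone H3-positive cells in each well following doxorubicin, given as raw counts without normalisation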
- Scale: mitotic cells: higher = more cells in mitosis, weaker G2 arrest
- Rule for the call: 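Genes are called active only when high mitotic counts were reproduced with independent dsRNAs and mitosis was checked for delay without damage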
- Calls: active = confirmed in follow-up tests; inactive = not confirmed
The screen tested about 23,000 reagents; shown is an unselected part of those with a known target gene and a result. Of all reagents, 62 (0.27%) were called active. 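Calls come from follow-up tests whose scores are not deposited, so confirmed genes may have low counts here; counts are not normalised per plate.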 Raw values are not corrected between plates.

olf186-M [DRSC07657] — mitotic cells, replicate 1 = 10; Call = inactive
Btk (Bruton tyrosine kinase) [DRSC02008] — mitotic cells, replicate 1 = 16; Call = inactive
Btk (Bruton tyrosine kinase) [DRSC02666] — Call = inactive
Btk (Bruton tyrosine kinase) [DRSC22427] — mitotic cells, replicate 1 = 7; Call = inactive
CCHa2-R (CCHamide-2 receptor) [DRSC04870] — mitotic cells, replicate 1 = 9; Call = inactive
CCHa2-R (CCHamide-2 receptor) [DRSC04871] — mitotic cells, replicate 1 = 5; Call = inactive
Send1 (Spermathecal endopeptidase 1) [DRSC00482] — mitotic cells, replicate 1 = 5; Call = inactive
Send1 (Spermathecal endopeptidase 1) [DRSC27719] — mitotic cells, replicate 1 = 8; Call = inactive
CG32053 [DRSC10683] — mitotic cells, replicate 1 = 8; Call = inactive
Mayo [DRSC14300] — mitotic cells, replicate 1 = 6; Call = inactive
Idgf4 (Imaginal disc growth factor 4) [DRSC18675] — mitotic cells, replicate 1 = 8; Call = inactive
Idgf4 (Imaginal disc growth factor 4) [DRSC24939] — mitotic cells, replicate 1 = 2; Call = inactive
Nup214 (Nucleoporin 214kD) [DRSC04421] — mitotic cells, replicate 1 = 2; Call = inactive
AANATL4 (Arylalkylamine N-acetyltransferase-like 4) [DRSC06774] — mitotic cells, replicate 1 = 21; Call = inactive
dhd (deadhead) [DRSC18761] — mitotic cells, replicate 1 = 6; Call = inactive
dhd (deadhead) [DRSC29590] — mitotic cells, replicate 1 = 7; Call = inactive
Dhrs4 (Dehydrogenase/reductase 4) [DRSC09773] — mitotic cells, replicate 1 = 7; Call = inactive
Tollo [DRSC11305] — Call = inactive
CG9922 [DRSC16579] — mitotic cells, replicate 1 = 3; Call = inactive
CG9922 [DRSC29719] — mitotic cells, replicate 1 = 5; Call = inactive
CG32437 [DRSC11760] — mitotic cells, replicate 1 = 3; Call = inactive
CG32437 [DRSC22020] — mitotic cells, replicate 1 = 16; Call = inactive
CG32437 [DRSC27187] — mitotic cells, replicate 1 = 9; Call = inactive
